Results taken from publication PMC4503874.
Results are given in words; binding and its absence hold for the method and conditions named. Some binding calls cover weakened binding; strength is not graded here.

Experiments:
[1] = biological target: T1, UV … LOCUS 8 (Arabidopsis thaliana) (UniProt Q9FN03); assay: two-hybrid; yeast PJ69-4a co-transformed with AD and BD vectors, SD -L/-T, 20 h on a 32 °C heating block with 3 μmol m^-2 s^-1 UV-B (0.13 W/m^2); quantified by beta-galactosidase (ONPG) activity
T1 sequence: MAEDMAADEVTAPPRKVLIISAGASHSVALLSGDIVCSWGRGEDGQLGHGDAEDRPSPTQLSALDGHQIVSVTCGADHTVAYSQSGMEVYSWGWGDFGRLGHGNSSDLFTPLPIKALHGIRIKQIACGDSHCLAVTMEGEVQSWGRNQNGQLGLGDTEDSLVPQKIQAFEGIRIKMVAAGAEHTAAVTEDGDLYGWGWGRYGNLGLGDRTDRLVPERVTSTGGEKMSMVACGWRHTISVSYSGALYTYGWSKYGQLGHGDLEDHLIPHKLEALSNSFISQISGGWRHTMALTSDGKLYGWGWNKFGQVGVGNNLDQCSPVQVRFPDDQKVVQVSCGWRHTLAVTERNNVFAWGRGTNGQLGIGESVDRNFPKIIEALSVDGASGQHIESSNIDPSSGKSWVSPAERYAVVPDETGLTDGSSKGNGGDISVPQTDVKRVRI

[2] = biological target: ARIADNE12 (Arabidopsis thaliana) (UniProt Q84RQ9); assay: as above
[3] = biological target: T2, CONSTITUTIVELY PHOTOMORPHOGENIC 1 (Arabidopsis thaliana) (UniProt P43254); assay: as above
T2 sequence: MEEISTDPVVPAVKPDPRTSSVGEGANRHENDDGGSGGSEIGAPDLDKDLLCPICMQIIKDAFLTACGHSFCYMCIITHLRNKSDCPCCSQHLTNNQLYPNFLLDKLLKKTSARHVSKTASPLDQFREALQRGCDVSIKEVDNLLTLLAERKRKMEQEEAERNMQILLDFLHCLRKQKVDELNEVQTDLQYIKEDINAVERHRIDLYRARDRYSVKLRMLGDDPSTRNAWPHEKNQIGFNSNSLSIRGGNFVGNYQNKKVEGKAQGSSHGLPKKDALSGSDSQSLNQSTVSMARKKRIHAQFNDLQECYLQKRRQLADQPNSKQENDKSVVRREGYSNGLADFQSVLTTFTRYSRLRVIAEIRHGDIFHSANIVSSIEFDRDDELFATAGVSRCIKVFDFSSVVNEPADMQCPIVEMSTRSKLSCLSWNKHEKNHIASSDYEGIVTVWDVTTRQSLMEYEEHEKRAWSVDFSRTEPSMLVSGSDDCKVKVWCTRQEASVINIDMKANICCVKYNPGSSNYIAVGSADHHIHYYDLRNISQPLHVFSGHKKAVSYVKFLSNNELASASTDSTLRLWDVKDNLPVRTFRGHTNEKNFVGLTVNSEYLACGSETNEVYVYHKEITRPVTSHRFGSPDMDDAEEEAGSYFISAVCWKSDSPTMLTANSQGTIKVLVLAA

[4] = biological target: T1, UV … LOCUS 8 (Arabidopsis thaliana); assay: two-hybrid; yeast PJ69-4a co-transformed with AD and BD vectors, SD -L/-T, white light without UV-B; quantified by beta-galactosidase (ONPG) activity
[5] = biological target: ARIADNE12 (Arabidopsis thaliana) (UniProt Q84RQ9); assay: as above
[6] = biological target: T2, CONSTITUTIVELY PHOTOMORPHOGENIC 1 (Arabidopsis thaliana); assay: as above

binding [1]: no binding | binding [2]: binds | binding [3]: no binding | binding [4]: no binding | binding [5]: binds | binding [6]: no binding
B1: ARIADNE12 (protein, UniProt Q84RQ9 1-496)
chain: MDNNSVIGSEVDAEADESYVNAALEDGQTGKKSVQRNYATVLTEEDIRALMEIDVQSVSDFTSLSKAEATLLLSHLRWNVDCICKQWSAGAQSVRDSVGLLELDPPSDDNEYFCGACGESHPHKNLASVSCGHRICTRCWTSHINKIISEKPAAEWNLWLKCPVRVGLHASCPASVGLDTIERFASKREKFNYNQYLLRSYVDNRETMKWHPIQGSRCAIDLSPGSGNASVSCHRLVRFCWNCREDAHSPVDCKTAAKWLLENAVPCPKCKLRIPRNQDNSLKMKCLPCNYVFCWFCHVDWIEDMEGTGGDLHFCTFDAVLSDQRGKMSESDSNRYEDCYENWDSNELLMQKEQANLPKLDTIIQELSNTQLENVSQLKFILEAGLQIIECRRVLEWTYVYGYYLREDEVGKQNLLKDTQERLKKFVENLKHCLETNLQPFRYEEEPSKDFNAFRIKLTELTSLTRNHYENVVKDVENGLASVVSEGEASGSGRNQ
